This note sets out measurements from patent publication US4769374A, “Tetrahydroisoquinoline ethyl esters of 1,4-dihydropyridines and antihypertensive compositions” (Poli Industria Chimica S.p.A., priority 1984, dated 1988).

The data set is described as follows: in vivo. The following applies: mouse, mice of both sexes, oral, day 14 of observation. The protocol: The acute toxicity was determined on mice of both sexes upon oral administration of the compounds to be tested as a suspension in carboxymethylcellulose containing 0.5% of physiologic solution, and it was expressed as an LD50 value at day 14 of observation.

Compound `COC(=O)C1=C(C)NC(C)=C(C(=O)OC)C1c1ccccc1[N+](=O)[O-]` [Nifedipine, reference compound] registered an LD50 at 336 h of 750 mg/kg.
